Experimental findings from US20180243273A1, “Composition for Intravesical Administration for Treating Bladder Pain” (priority 2017, published 2018) are described below.

The source gives many values for each of these; only a part stands here.

The series is described as follows: Storage of compositions with/without nitrogen-gassing and ascorbic acid, assay and impurities. Format: physicochemical. As to conditions: phosphate buffer. As to the method:
A possible beneficial effect of nitrogen-gassing during manufacturing and storage was assessed. Selected compositions were manufactured by dissolution of API via stirring for 24 h and stored after treatment with/without nitrogen at 25° C. or 6° C. for up to 28 days.
The manufactured batches consisted of phosphate buffer and vitamin E TPGS and were compared to compositions containing ascorbic acid 1%, additionally. API was used at 0.01 wt.-%, 0.02 wt.-% or 0.04 w.-%. The compositions were saturated with API, where 10 mg, 20 mg or 40 mg were dissolved in 100 g buffer containing 0.5 wt.-%, wt.-1% or 2 wt.-% vitamin E TPGS, respectively. The compositions were transferred into polystyrene bottles and stored at 25° C. or 6° C. A part of the compositions was treated with nitrogen during manufacturing and gassed with nitrogen prior to sealing (see FIG. 18). The compositions were tested for assay and purity of API after manufacturing, as well as after 7, 14 and 28 days.

Setting [1] is: vitamin E TPGS 0.5%, no Asc., N2 +, API 0.01%, 6° C., t = 7 d.
The mark [2] stands for this setting: vitamin E TPGS 0.5%, no Asc., N2 +, API 0.01%, 6° C., t = 14 d.
Where [3] appears, read: vitamin E TPGS 0.5%, no Asc., N2 +, API 0.01%, 25° C., t = 28 d.
[4] abbreviates: vitamin E TPGS 1%, Asc. 1%, N2 −, API 0.02%, 6° C., t = 7 d.
The mark [5] stands for this setting: vitamin E TPGS 1%, Asc. 1%, N2 −, API 0.02%, 6° C., t = 14 d.
Setting [6] is: vitamin E TPGS 1%, Asc. 1%, N2 −, API 0.02%, 6° C., t = 28 d.
Setting [7] is: vitamin E TPGS 1%, Asc. 1%, N2 −, API 0.02%, 25° C., t = 7 d.
Where [8] appears, read: vitamin E TPGS 1%, Asc. 1%, N2 −, API 0.02%, 25° C., t = 14 d.
[9] abbreviates: vitamin E TPGS 1%, Asc. 1%, N2 −, API 0.02%, 25° C., t = 28 d.
Where [10] appears, read: vitamin E TPGS 1%, Asc. 1%, N2 −, API 0.02%, t = 0.

On to `CN(C)[C@]1(c2cccc(F)c2)CC[C@]2(CC1)c1[nH]c3ccccc3c1CCN2C(=O)/C=C/c1ccccc1` [API, cis-(E)-4-(3-fluorophenyl)-2′,3′,4′,9′-tetrahydro-N,N-dimethyl-2′-(1-oxo-3-phenyl-2-propenyl)-spiro[cyclohexane-1,1′[1H]-pyrido[3,4-b]indol]-4-amine], for which the Assay stood at 49.69 µg/mL under setting [1]; 49.97 µg/mL under setting [2]; 49.80 µg/mL under setting [3]; 112.48 µg/mL under setting [4]; 112.95 µg/mL under setting [5]; 112.97 µg/mL under setting [6]. Moreover, the Assay turned out to be 112.15 µg/mL under setting [7], 113.59 µg/mL under setting [8], 103.54 µg/mL under setting [9] and 110.52 µg/mL under setting [10]. Further, the Impurities is, setting by setting: under setting [1], 0.73 % (a/a); under setting [2], 0.83 % (a/a); under setting [3], 0.87 % (a/a); under setting [4], 0.67 % (a/a); under setting [5], 0.96 % (a/a); under setting [6], 0.91 % (a/a). Further, the Impurities reads like this: under setting [7], 1.01 % (a/a); under setting [8], 1.05 % (a/a); under setting [9], 1.63 % (a/a); under setting [10], 0.55 % (a/a).
